Experimental data: the supplement of paper PMC4604168 (melanoma cell lines)
The other results are listed elsewhere or left out. Repeats are few or missing, and single values can be far off.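 Cells were imaged in 1,536-well plates, and nuclei stained with an antibody against cleaved PARP were counted against all DNA-stained nuclei to give the apoptosis fraction. Screening doses were chosen to leave most cells alive, and resting and induced cleaved-PARP levels differ strongly between cell lines.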

Tests used:
Experiment in all cases: cleaved PARP positive nuclei fraction relative to DMSO control; melanoma cells; higher = more apoptosis
Conditions in all cases: library dose: low library concentration; 72 h
[1] = test system: WM115
[2] = test system: WM1716
[3] = test system: WM1745
[4] = test system: WM3526
[5] = test system: WM3619
[6] = test system: WM451Lu

Row | Structure (SMILES) | cleaved PARP positive nuclei fraction [1] [%] | cleaved PARP positive nuclei fraction [2] [%] | cleaved PARP positive nuclei fraction [3] [%] | cleaved PARP positive nuclei fraction [4] [%] | cleaved PARP positive nuclei fraction [5] [%] | cleaved PARP positive nuclei fraction [6] [%]
1 | C[As](C)SC[C@H](NC(=O)CC[C@H](N)C(=O)O)C(=O)NCC(=O)O [Darinaparsin] + NCC(=O)Nc1ccc(-n2nc(C(F)(F)F)cc2-c2ccc3c(ccc4ccccc43)c2)cc1 [OSU03012] (first compound 0.4 µM, partner dose 1 µM) | 121 | 102 | 195 | 110 | 91.7 | 94.1
2 | CCCCCCCCCCCCCCCCCCOP(=O)([O-])OC1CC[N+](C)(C)CC1 [Perifosine] + C/C(O)=C(\C#N)C(=O)Nc1cc(Br)ccc1Br [LFM-A13] (first compound 0.4 µM, partner dose 2 µM) | 92.9 | 48.6 | 92.2 | 90.9 | 82.7 | 117
3 | O=C(Nc1ccccc1)c1cc([N+](=O)[O-])ccc1Cl + Cc1cc(SCc2sc(-c3ccc(C(F)(F)F)c(F)c3)nc2C)ccc1OCC(=O)O [GW0742] (first compound 2 µM, partner dose 2 µM) | 74.6 | 140 | 210 | 81 | 83.9 | 31.3
4 | C[C@]12O[C@H](C[C@]1(O)CO)n1c3ccccc3c3c4c(c5c6ccccc6n2c5c31)CNC4=O [Lestaurtinib] + NCC(=O)Nc1ccc(-n2nc(C(F)(F)F)cc2-c2ccc3c(ccc4ccccc43)c2)cc1 [OSU03012] (first compound 0.004 µM, partner dose 1 µM) | 58.7 | 72.2 | 94.8 | 98.2 | 83.7 | 305
5 | C[As](C)SC[C@H](NC(=O)CC[C@H](N)C(=O)O)C(=O)NCC(=O)O [Darinaparsin] + C[C@@H]1CCN(C(=O)CC#N)C[C@@H]1N(C)c1ncnc2[nH]ccc12 [CP690550] (first compound 0.4 µM, partner dose 1 µM) | 135 | 66.9 | 81 | 59.8 | 89.2 | 115
6 | CN1CCN(c2ccc3nc(-c4c(N)c5c(F)cccc5[nH]c4=O)[nH]c3c2)CC1 [Dovitinib] + C[As](C)SC[C@H](NC(=O)CC[C@H](N)C(=O)O)C(=O)NCC(=O)O [Darinaparsin] (first compound 0.1 µM, partner dose 0.4 µM) | 128 | 60.9 | 100 | 94.9 | 93.5 | 44.1
7 | Cn1cc(C2=C(c3cn(C4CCN(Cc5ccccn5)CC4)c4ccccc34)C(=O)NC2=O)c2ccccc21 [Enzastaurin] + Cc1cc(SCc2sc(-c3ccc(C(F)(F)F)c(F)c3)nc2C)ccc1OCC(=O)O [GW0742] (first compound 0.8 µM, partner dose 2 µM) | 50.3 | 217 | 96.4 | 77 | 118 | 187
8 | C[C@@H](N)c1ccc(C(=O)Nc2ccnc3[nH]ccc23)cc1 + C[C@]12O[C@H](C[C@]1(O)CO)n1c3ccccc3c3c4c(c5c6ccccc6n2c5c31)CNC4=O [Lestaurtinib] (first compound 0.4 µM, partner dose 0.004 µM) | 102 | 98.3 | 111 | 47.5 | 83.1 | 44.4
9 | COCC[n+]1c2c(n(Cc3cnccn3)c1C)C(=O)c1ccccc1C2=O + Cc1cc(SCc2sc(-c3ccc(C(F)(F)F)c(F)c3)nc2C)ccc1OCC(=O)O [GW0742] (first compound 0.0004 µM, partner dose 2 µM) | 44.5 | 105 | 88.9 | 68.4 | 74.4 | 98.6
10 | CC1(C)NC(=O)N(c2ccc([N+](=O)[O-])c(C(F)(F)F)c2)C1=O [nilutamide] + O=C(Oc1ccc([N+](=O)[O-])cc1)N1CCC(C(O)(c2ccc3c(c2)OCO3)c2ccc3c(c2)OCO3)CC1 [JZL184] (first compound 1 µM, partner dose 1 µM) | 112 | 66.3 | 101 | 69 | 133 | 27.4
11 | N.N.[Cl][Pt][Cl] [cisplatin] + COc1cc2ncnc(Nc3ccc(Oc4ccccc4)cc3)c2cc1OC [SrcI1] (first compound 1.6 µM, partner dose 2 µM) | 75.9 | 78.5 | 103 | 351 | 95.6 | 32.7
12 | N.N.[Cl][Pt][Cl] [cisplatin] + COc1cc(N2CCC(N3CCN(C)CC3)CC2)ccc1Nc1ncc(Cl)c(Nc2ccccc2S(=O)(=O)C(C)C)n1 [NVP-TAE684] (first compound 1.6 µM, partner dose 0.08 µM) | 147 | 53.5 | 116 | 98.3 | 144 | 72.6

Some of the entries so far, as labelled records:
CC1(C)NC(=O)N(c2ccc([N+](=O)[O-])c(C(F)(F)F)c2)C1=O [nilutamide] + O=C(Oc1ccc([N+](=O)[O-])cc1)N1CCC(C(O)(c2ccc3c(c2)OCO3)c2ccc3c(c2)OCO3)CC1 [JZL184] (first compound 1 µM, partner dose 1 µM)
  cleaved PARP positive nuclei fraction [1] [%]: 112; cleaved PARP positive nuclei fraction [2] [%]: 66.3; cleaved PARP positive nuclei fraction [3] [%]: 101; cleaved PARP positive nuclei fraction [4] [%]: 69; cleaved PARP positive nuclei fraction [5] [%]: 133; cleaved PARP positive nuclei fraction [6] [%]: 27.4
N.N.[Cl][Pt][Cl] [cisplatin] + COc1cc2ncnc(Nc3ccc(Oc4ccccc4)cc3)c2cc1OC [SrcI1] (first compound 1.6 µM, partner dose 2 µM)
  cleaved PARP positive nuclei fraction [1] [%]: 75.9; cleaved PARP positive nuclei fraction [2] [%]: 78.5; cleaved PARP positive nuclei fraction [3] [%]: 103; cleaved PARP positive nuclei fraction [4] [%]: 351; cleaved PARP positive nuclei fraction [5] [%]: 95.6; cleaved PARP positive nuclei fraction [6] [%]: 32.7
